Measured data: PubChem BioAssay AID652243 (Drosophila RNAi Screening Center, 2013)

- Screen: 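Fly regulators of androgen-dependent reporter output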 (primary screen)
- Cells: Drosophila S2R+ cells
- Reagents: long dsRNA against Drosophila genes
- Duration: 72 h (48 h, then 24 h hormone)
- Challenge: synthetic androgen R1881 at 10 nM for 24 h
- Measurement: 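Per-well raw luminescence of the androgen-driven firefly reporter and of the Renilla control, two replicates each, without normalisation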
- Direction: firefly reporter light: higher = more light from androgen-responsive reporter; Renilla control light: higher = more constitutive control signal (cell number, transfection)
- Rule for the call: 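Hit when the log firefly-to-Renilla ratio dropped or increased by a fixed fold versus the mean of GFP or LacZ controls across duplicate plates; lowering cut given as 1.5 and as 3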
- Calls: active = hit: reporter lowered or raised; inactive = no hit
The screen tested about 24,000 reagents; shown is an unselected part of those that have a named target and a result. Over the whole deposit, 246 (1%) are marked active. 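Plates not normalised; calls are printed but the firefly/Renilla ratio behind them is not deposited; fold cut for lowering reported inconsistently.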 The raw values are shown without normalisation. A plus sign joins genes that one reagent is predicted to hit. Not stated in the record: the amount of reagent.

no.	gene	DRSC id	firefly reporter light, replicate 1	firefly reporter light, replicate 2	Renilla control light, replicate 1	Renilla control light, replicate 2	activity call
1	Tep1	DRSC03450	1.21e5	1.71e5	1.32e6	1.53e6	inactive
2	Tep1	DRSC26163	5.72e5	5.54e5	7.79e5	6.87e5	inactive
3	disco-r	DRSC20173	5.80e5	6.06e5	4.05e6	3.61e6	inactive
4	disco-r	DRSC20174	6.94e5	5.00e5	3.13e6	1.41e6	inactive
5	Mi-2	DRSC11222	2.17e5	2.16e5	2.29e6	2.53e6	inactive
6	Mi-2	DRSC25055	3.00e5	3.68e5	3.91e5	3.94e5	inactive
7	sli	DRSC07684	58447	41424	6.78e5	6.78e5	inactive
8	sli	DRSC22936	4.81e5	1.25e6	1.24e6	2.79e6	inactive
9	sli	DRSC29578	5.11e5	5.67e5	1.09e6	1.09e6	inactive
10	sturkopf	DRSC08637	1.11e6	7.75e5	1.48e6	9.67e5	inactive
11	sturkopf	DRSC29932	2.84e5	3.06e5	1.12e6	1.01e6	inactive
12	O-fut1	DRSC06138	9.92e5	5.37e5	3.00e6	2.05e6	inactive
13	O-fut1	DRSC26476	63267	67030	1.17e5	85568	inactive
14	CG5707	DRSC08573	6.76e5	7.61e5	1.10e6	1.87e6	inactive
15	CG5707	DRSC24854	6.44e5	7.70e5	6.99e5	8.75e5	inactive
16	Eig71Ef	DRSC11153	3.39e5	3.46e5	2.62e6	2.73e6	inactive
17	CG15073	DRSC06506	1.27e5	1.41e5	2.24e6	1.74e6	inactive
18	CG15073	DRSC27105	4.57e5	3.35e5	6.27e5	3.80e5	inactive
19	CG6059	DRSC15958	75459	69276	5.09e5	5.38e5	inactive
20	Rhp	DRSC20279	6.05e5	4.58e5	4.56e6	3.09e6	inactive
21	rempA	DRSC00327	75877	1.13e5	5.18e5	7.15e5	inactive
22	HP4	DRSC10958	5.90e5	5.36e5	9.69e5	1.86e6	inactive
23	CG13063	DRSC09946	3.31e5	3.67e5	3.36e6	2.96e6	inactive
24	CG13063	DRSC25466	6.87e5	6.39e5	9.71e5	9.65e5	inactive
25	sPLA2	DRSC06041	4.22e5	3.10e5	3.29e6	2.20e6	inactive
26	sPLA2	DRSC26194	4.87e5	4.71e5	6.18e5	3.36e5	inactive
27	sim	DRSC17054	54165	52580	9.69e5	1.12e6	inactive
28	sim	DRSC28753	3.66e5	4.47e5	8.14e5	7.54e5	inactive
29	CG31219	DRSC15140	2.52e5	3.12e5	2.81e6	3.35e6	inactive
30	Gle1	DRSC06485	5.91e5	5.47e5	7.37e5	6.25e5	inactive
31	Gle1	DRSC29960	5.67e5	4.44e5	1.17e6	1.15e6	inactive
32	CG18542 + CG32939	DRSC15342	27589	79952	1.71e5	4.61e5	inactive
33	CG44000 + CG33995 + CG44001	DRSC00853	2.25e5	1.73e5	6.77e5	5.98e5	inactive
34	CG44000 + CG33995 + CG44001	DRSC02898	7.03e5	8.03e5	2.16e6	2.50e6	inactive
35	obe	DRSC15736	57796	1.45e5	5.83e5	8.04e5	inactive

7 entries from above, ordered by “Renilla control light, replicate 2”, descending.
gene	DRSC id	firefly reporter light, replicate 1	firefly reporter light, replicate 2	Renilla control light, replicate 1	Renilla control light, replicate 2	activity call
CG31219	DRSC15140	2.52e5	3.12e5	2.81e6	3.35e6	inactive
sPLA2	DRSC06041	4.22e5	3.10e5	3.29e6	2.20e6	inactive
Gle1	DRSC29960	5.67e5	4.44e5	1.17e6	1.15e6	inactive
sim	DRSC17054	54165	52580	9.69e5	1.12e6	inactive
sim	DRSC28753	3.66e5	4.47e5	8.14e5	7.54e5	inactive
Gle1	DRSC06485	5.91e5	5.47e5	7.37e5	6.25e5	inactive
sPLA2	DRSC26194	4.87e5	4.71e5	6.18e5	3.36e5	inactive

The results go on.
no.	gene	DRSC id	firefly reporter light, replicate 1	firefly reporter light, replicate 2	Renilla control light, replicate 1	Renilla control light, replicate 2	activity call
36	CG11811	DRSC09862	1.83e5	2.06e5	1.89e6	1.58e6	inactive
37	CG11811	DRSC36893					inactive
38	Ubc84D	DRSC12610	1.12e5	1.55e5	2.05e6	2.12e6	inactive
39	Ubc84D	DRSC25384	7.56e5	5.63e5	1.99e6	7.77e5	inactive
40	CG6321	DRSC10623	9.98e5	7.10e5	1.06e6	8.74e5	inactive
41	ppk30	DRSC15302	1.34e5	1.26e5	1.62e6	2.22e6	inactive
42	Mgat4b	DRSC10256	2.14e5	1.67e5	2.23e6	2.02e6	inactive
43	Mgat4b	DRSC29839	7.41e5	5.52e5	1.48e6	1.28e6	inactive
44	Pep	DRSC11252	45311	64493	6.72e5	9.40e5	inactive
45	l(2)34Fc	DRSC01910	1.48e5	1.92e5	2.00e6	1.73e6	inactive
46	lectin-37Da	DRSC03278	3.33e5	3.41e5	3.20e6	3.23e6	inactive
47	lectin-37Da	DRSC22729	9.28e5	7.68e5	1.23e6	9.21e5	inactive
48	Mst36Fb	DRSC28786	9.28e5	1.13e6	1.45e6	1.18e6	inactive
49	CG12096	DRSC21692	7.61e5	5.96e5	2.26e6	2.01e6	inactive
50	CG12096	DRSC27886	5.77e5	3.81e5	1.36e6	1.11e6	inactive
51	Hr51	DRSC06627	42743	67317	2.39e6	2.39e6	active
52	Hr51	DRSC22829	2.86e5	5.31e5	1.04e6	1.63e6	inactive
53	CG9205	DRSC08642	1.13e6	9.33e5	1.69e6	1.71e6	inactive
54	tau	DRSC23046	7.99e5	9.31e5	8.53e5	9.15e5	inactive
55	phyl	DRSC07663	1.14e5	1.33e5	2.19e6	2.19e6	inactive
56	phyl	DRSC24829	4.96e5	3.93e5	5.15e5	3.77e5	inactive
57	obst-E	DRSC02128	6.03e5	8.43e5	1.32e6	1.24e6	inactive
58	obst-E	DRSC25834	6.09e5	7.01e5	9.29e5	1.04e6	inactive
